About 3,700 (7%) of roughly 53,000 sequences were called active.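 How the source made its calls: active means gene knockdowns whose robust z-score for IL-1 alpha signal is at least 2 or at most -2, so actives lie on both sides; inactive means the rest.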 Some of the results follow.

The test can be described thus: Components of the Cytosolic LPS Sensing Pathway: Gene Identification via Genome-wide siRNA Screen.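 Further: robust z of the log signal after scaling to non-targeting control siRNA wells of the plate.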 Particulars: RAW264.7 macrophages, IL-1a HTRF, actives lie on both sides, screened at 100 nM (by protocol), cells primed 5 h with Pam3CSK4 first. A digest of the protocol:
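Read-out: IL-1a HTRF on supernatant, divided by plate negative-control median ×100, log-transformed and converted to robust z-score. Cells were RAW264.7 given 100 nM siRNA, Pam3CSK4-primed 5 hours, then LipidA-transfected 24 hour.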
Background: Time-resolved FRET reads energy transfer from a long-lived donor to a nearby acceptor.
GAACUCUCUCUUCAUCUGGTT against Cd300ld3: the z-score is active: 2.18.

Turning to GGUGAUGUUUGUCAACAACTT against Slc14a2, the z-score was inactive: 0.373.

Consider GGGAAGCUACUCUUUGUCUTT against Hexb, for which the z-score was inactive: 0.311.

Turning to GCAUAUUAGACACAAGAUATT against Clec4a2, the z-score is inactive: 0.465.

In the case of UAUCACAGACAUGAAAGAATT against Lst1, the z-score is inactive: 0.105.

With GGCUCAAACGAACAUAUCGTT against Cenpo, the z-score was inactive: -1.29.

Take CCACAUUGGUACUAGUCAATT against Fam120b: the z-score is inactive: -0.63.

Turning to GGUCAGGAUGAAGAAAACATT against Nedd4l, the z-score is inactive: -0.4.

In the case of GGCAGAAUAUACUUGCCCUTT against Uevld, the z-score is inactive: -0.156.

In the case of GGUUUUGGUGUUCUAUACCTT against Fam160b1, the z-score was inactive: 0.489.

For the sequence GGGAGAUGGGUUUGUGUAATT against Izumo4, the z-score was inactive: -0.0288.

With GGAAACAACCCAAAGAAUCTT against Slc12a8, the z-score is inactive: -0.343.

Consider GCCUGUUCUCAAGACUGACTT against Sema4a, for which the z-score was active: 2.06.

Consider GCAGGCUAUGUUCUGGAAUTT against Zfp212, for which the z-score is active: 2.34.

GGGUGGAGAAAAAAUGUACTT against Trappc13: the z-score is inactive: -0.756.

As to GCCUACGCUCUAUCUAGCUTT against Washc3, the z-score was inactive: -0.363.

Take CGUUGUAUAACAAACCAAUTT against Muc6: the z-score was inactive: -0.947.

Consider GGUGAAAGUCAACUUUGACTT against Scn5a, for which the z-score was inactive: -1.2.

Regarding GCCAAUACAGACCACCUGGTT against Rln3, the z-score is inactive: -1.67.

Regarding GGUGCUAUACGAAUACUUGTT against Stxbp5l, the z-score was inactive: -0.0835.

For the sequence CCAUGUGCGAUGUCACCAUTT against Zbtb39, the z-score was inactive: -1.46.

As to GGCCCUUCAAGUGUGAUCUTT against Zfp319, the z-score is inactive: -0.135.

Consider GGGAUAAGCUUUACGAGCGTT against Purb, for which the z-score is inactive: -0.775.

For the sequence GGCACCAUCUCCAUAAAAATT against Foxa3, the z-score is inactive: -0.858.

As for CCUGUCAGGGAUGGAUUUUTT against Bhlhe40, the z-score was inactive: -0.23.

Take GGAAUUUAAAUUAUCCCUGTT against Krtap4-2: the z-score is inactive: -0.127.

As for GCUUACCCUCUCCUAAAUUTT against Wdr27, the z-score was inactive: -1.21.

As to GGCCAUGAAGAAGAUGUACTT against Stard10, the z-score is inactive: -1.06.

GGAGAGAAAGAAACCUAUUTT against Fmn2: the z-score is inactive: 0.567.

For the sequence GGCAGAAGGGUAUAACUGUTT against Tbc1d24, the z-score is inactive: 0.549.

Consider “GGAAGUGUCUUUCAAGCCCTT against 1700029J07Rik”, for which the z-score is inactive: 1.88.

Consider GGCAGUCAACAAAGAAGACTT against Metap1d, for which the z-score was inactive: -0.711.

With CCUUAUCCUGGGAAAAUCATT against Olfr266, the z-score is inactive: 0.132.

Turning to GCAGCAUGCCUAAAUUUGGTT against Fyb, the z-score was inactive: -0.31.

As to GGAAGAGGUAAAUGACAACTT against Slco6b1, the z-score is inactive: 0.153.

As to GCUAAAUACAGGAGAAAACTT against Rhox10, the z-score was inactive: -0.149.

With GGCAACAUGAAGACUUUGUTT against Snx5, the z-score was inactive: -1.04.

Take GGGUGUCAUACUGUCCCAUTT against Olfr616: the z-score was inactive: -0.324.

As to GGUAAUUCUCCAAACCUCATT against Mfsd4a, the z-score is inactive: -0.484.

As for GCCGAUGAAGACCUUAGUCTT against Iqcd, the z-score was inactive: -0.86.

For the sequence CCAGAUGUGUCGUAACAUATT against Clec4e, the z-score is inactive: -1.38.

For the sequence CCCAGAGGUUCCCGUCAAUTT against Hmgb3, the z-score was inactive: -0.21.

For GGAACUCUGUUCUAUUCCUTT against Chek2, the z-score is inactive: 0.578.

As for GGAUAUCACCUACCUUCGATT against Dusp15, the z-score is inactive: -0.775.

For the sequence GGCUCUACCACAAGAAGGUTT against Iscu, the z-score is inactive: 0.0947.

With UGCUGGUAGACCUAGUAGCTT against Olfr1137, the z-score was active: -2.1.

Take GGGUUACUUCAACUCAUGCTT against Dcaf5: the z-score was inactive: -0.275.

As for GGCAGUCUACUUUACACGGTT against Prdm1, the z-score is inactive: 0.294.

Turning to GCGGUUCCAAGAUUGUUGUTT against Armc8, the z-score was inactive: 0.109.

In the case of GGCAUGUUACAUUUAUCAUTT against Cdkal1, the z-score is inactive: 0.226.

Regarding GGGACAAGUGUUGUUUGACTT against Epb41l2, the z-score was inactive: 1.31.

Consider GGUACAACAGACUAUGCAATT against Snai1, for which the z-score was inactive: 0.886.

Consider GGAACACAGAGUUAACUUATT against Ifi35, for which the z-score is inactive: 0.509.

In the case of GGAAGUGUGGACGAAUAAATT against Prelid3a, the z-score is inactive: 0.691.

Turning to GCCUCAUGAAUGACCACACTT against Klk1b21, the z-score was inactive: 1.53.

As for GGAUGUGCCUCGGUUGGAUTT against Gulo, the z-score was inactive: 0.663.

As to GGUGAACUGGUCUACAACATT against Muc2, the z-score was inactive: 0.34.

On to GGAGCACAAAGACAUUUUUTT against Lrrn1, for which the z-score was inactive: 0.781.

For CCUCCUGUUAAUCAAACUGTT against Prss58, the z-score is inactive: -0.0258.

Regarding GGCAAAGACACCCAAAAAUTT against Hcfc1, the z-score is inactive: -1.25.

Take GGAUUUACCAGAGGAAAAUTT against Otub2: the z-score was inactive: 0.228.

For the sequence GGUCAGAGCUCUGGACAAATT against Hsd3b1, the z-score is active: 4.24.

For GCAGAAAGGCUGCUUCGAUTT against Tnfaip8l3, the z-score was inactive: -0.635.

On to GGUCUACGAGUUUAUUGCUTT against Phc1, for which the z-score was inactive: -0.536.

Consider GGACUACCACAGCCUCUUCTT against Pxn, for which the z-score is inactive: 0.173.

Turning to GGGAACUGAAAAAUUUAGATT against Lrrd1, the z-score is inactive: -0.00741.

Turning to GGAUUGUCCACAUGGAACUTT against Ccl27a, the z-score was inactive: -0.112.

With GCAAUUGUCAUUAGUUUUGTT against Nxpe2, the z-score was inactive: 1.79.

The record behind these values is PubChem BioAssay AID1508600 (Functional Genomics Laboratory (NCATS/FGL), 2020).
